Some of the results follow.
Assays:
Assay in all cases: log2 fold change, soluble protein after heating vs DMSO (PISA); higher = thermal stabilisation; K562 lysate, 10 uM; active = over 0.2 and 3.5 SD of the protein, either way, in both replicates (recomputed)
[1] = compound: CN1CC[C@H](c2c(O)cc(O)c3c(=O)cc(-c4ccccc4Cl)oc23)[C@H](O)C1 [alvocidib]
How it was run: (§1)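 Soluble protein was defined as the supernatant remaining after 21,000xg for 90 min, following pooling of heated aliquots and adjustment to 0.5% NP-40 at 4°C. Before that, crude K562 extract at 1 mg/mL protein in PBS pH 7.4 with 1 mM MgCl2 was treated with 10 μM compound for 30 min and heated for 3 min across 48°C-58°C. Quantification used TMTpro 16plex LC-MS/MS with channel sums equalised, and values are log-two fold changes in thermal stability relative to solvent controls from duplicates.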

Chains of the proteins cited; added tags and fusions are not shown. Lines headed by an entry give the natural chain unless they say otherwise; changes in a name come on top.
UniProt P08311: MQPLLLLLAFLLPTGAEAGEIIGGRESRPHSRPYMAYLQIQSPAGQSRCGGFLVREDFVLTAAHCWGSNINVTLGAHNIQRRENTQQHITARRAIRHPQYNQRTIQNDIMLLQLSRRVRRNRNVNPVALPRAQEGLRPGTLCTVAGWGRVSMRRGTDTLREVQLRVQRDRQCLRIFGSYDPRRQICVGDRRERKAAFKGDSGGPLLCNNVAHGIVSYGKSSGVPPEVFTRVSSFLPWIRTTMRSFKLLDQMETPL
UniProt P52943: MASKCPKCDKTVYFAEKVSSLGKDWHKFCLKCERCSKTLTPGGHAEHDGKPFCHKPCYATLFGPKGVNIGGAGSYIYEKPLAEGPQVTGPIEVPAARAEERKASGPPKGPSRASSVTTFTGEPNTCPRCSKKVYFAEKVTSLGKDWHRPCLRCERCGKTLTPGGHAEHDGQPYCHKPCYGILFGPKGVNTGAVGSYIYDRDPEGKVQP
UniProt E9PJD7, whole entry, looked up: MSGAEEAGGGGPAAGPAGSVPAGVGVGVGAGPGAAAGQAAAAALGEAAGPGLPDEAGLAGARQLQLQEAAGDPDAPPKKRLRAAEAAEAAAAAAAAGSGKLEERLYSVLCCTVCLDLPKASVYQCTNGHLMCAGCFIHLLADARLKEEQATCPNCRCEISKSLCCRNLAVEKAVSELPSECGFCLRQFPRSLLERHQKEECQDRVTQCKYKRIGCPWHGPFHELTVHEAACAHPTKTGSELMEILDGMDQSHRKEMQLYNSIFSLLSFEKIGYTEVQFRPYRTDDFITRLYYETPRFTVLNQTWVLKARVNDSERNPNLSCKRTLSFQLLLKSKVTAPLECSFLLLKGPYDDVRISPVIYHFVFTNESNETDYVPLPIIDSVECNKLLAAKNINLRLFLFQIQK
UniProt Q9BZJ0: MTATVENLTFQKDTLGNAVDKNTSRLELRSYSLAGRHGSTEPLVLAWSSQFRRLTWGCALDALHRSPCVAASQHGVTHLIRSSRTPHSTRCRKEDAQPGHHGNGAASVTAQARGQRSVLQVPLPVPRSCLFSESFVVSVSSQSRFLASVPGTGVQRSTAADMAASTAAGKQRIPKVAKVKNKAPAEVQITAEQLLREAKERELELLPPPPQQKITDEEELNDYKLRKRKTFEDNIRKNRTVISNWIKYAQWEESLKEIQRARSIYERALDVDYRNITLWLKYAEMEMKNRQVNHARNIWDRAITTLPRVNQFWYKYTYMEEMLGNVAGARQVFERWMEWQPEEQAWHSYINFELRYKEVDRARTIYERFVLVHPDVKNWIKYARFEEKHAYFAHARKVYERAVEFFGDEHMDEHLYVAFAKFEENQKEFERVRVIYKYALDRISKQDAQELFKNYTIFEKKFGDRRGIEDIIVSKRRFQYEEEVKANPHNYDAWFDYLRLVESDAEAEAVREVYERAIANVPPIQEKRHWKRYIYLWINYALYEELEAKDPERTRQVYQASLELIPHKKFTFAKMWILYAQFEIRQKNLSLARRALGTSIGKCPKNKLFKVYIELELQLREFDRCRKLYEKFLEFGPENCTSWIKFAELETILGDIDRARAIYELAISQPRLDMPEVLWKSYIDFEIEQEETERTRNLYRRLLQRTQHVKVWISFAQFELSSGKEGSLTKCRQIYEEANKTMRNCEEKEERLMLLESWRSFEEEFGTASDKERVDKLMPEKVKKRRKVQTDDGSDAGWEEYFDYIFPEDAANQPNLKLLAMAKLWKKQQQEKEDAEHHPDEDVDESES
UniProt Q86T23: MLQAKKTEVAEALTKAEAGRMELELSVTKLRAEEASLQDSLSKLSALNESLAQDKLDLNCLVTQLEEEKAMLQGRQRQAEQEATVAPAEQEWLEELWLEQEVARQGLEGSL
UniProt Q9H175: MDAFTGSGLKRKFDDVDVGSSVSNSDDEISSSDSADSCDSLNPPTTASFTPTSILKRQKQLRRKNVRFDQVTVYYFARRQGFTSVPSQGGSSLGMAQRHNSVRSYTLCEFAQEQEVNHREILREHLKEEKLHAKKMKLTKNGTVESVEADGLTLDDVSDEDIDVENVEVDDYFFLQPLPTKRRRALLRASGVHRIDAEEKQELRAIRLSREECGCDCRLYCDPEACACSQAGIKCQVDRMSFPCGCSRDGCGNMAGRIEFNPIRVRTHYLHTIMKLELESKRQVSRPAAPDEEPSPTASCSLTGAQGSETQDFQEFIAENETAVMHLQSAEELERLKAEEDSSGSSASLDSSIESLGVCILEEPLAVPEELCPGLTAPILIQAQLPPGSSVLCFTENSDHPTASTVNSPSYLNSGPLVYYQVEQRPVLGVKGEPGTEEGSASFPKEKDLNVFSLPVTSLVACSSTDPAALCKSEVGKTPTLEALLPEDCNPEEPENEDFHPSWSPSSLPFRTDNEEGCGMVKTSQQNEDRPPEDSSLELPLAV
UniProt O95476: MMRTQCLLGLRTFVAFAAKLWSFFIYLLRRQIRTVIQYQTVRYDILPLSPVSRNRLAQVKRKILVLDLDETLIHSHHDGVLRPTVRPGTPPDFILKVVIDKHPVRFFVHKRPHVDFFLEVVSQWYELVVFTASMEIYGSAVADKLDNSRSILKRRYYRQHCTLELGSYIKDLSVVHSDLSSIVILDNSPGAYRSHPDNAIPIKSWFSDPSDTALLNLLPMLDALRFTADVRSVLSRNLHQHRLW
UniProt P43155: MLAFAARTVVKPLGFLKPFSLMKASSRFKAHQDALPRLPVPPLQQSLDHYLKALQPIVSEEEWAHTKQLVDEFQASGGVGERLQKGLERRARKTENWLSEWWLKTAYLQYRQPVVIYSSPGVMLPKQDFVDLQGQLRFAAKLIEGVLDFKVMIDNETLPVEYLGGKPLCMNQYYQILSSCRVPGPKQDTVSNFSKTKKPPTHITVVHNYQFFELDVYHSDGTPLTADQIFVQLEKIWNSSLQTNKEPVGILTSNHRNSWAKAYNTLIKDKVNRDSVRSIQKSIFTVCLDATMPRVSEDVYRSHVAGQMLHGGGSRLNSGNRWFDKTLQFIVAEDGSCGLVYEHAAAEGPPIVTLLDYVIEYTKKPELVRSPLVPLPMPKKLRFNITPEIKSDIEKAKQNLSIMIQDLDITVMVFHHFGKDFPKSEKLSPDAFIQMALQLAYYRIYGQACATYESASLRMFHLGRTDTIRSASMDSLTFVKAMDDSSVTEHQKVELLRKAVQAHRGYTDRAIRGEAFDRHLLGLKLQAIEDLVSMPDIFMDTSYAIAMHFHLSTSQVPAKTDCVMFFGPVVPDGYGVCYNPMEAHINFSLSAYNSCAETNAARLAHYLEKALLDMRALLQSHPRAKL
UniProt O95196: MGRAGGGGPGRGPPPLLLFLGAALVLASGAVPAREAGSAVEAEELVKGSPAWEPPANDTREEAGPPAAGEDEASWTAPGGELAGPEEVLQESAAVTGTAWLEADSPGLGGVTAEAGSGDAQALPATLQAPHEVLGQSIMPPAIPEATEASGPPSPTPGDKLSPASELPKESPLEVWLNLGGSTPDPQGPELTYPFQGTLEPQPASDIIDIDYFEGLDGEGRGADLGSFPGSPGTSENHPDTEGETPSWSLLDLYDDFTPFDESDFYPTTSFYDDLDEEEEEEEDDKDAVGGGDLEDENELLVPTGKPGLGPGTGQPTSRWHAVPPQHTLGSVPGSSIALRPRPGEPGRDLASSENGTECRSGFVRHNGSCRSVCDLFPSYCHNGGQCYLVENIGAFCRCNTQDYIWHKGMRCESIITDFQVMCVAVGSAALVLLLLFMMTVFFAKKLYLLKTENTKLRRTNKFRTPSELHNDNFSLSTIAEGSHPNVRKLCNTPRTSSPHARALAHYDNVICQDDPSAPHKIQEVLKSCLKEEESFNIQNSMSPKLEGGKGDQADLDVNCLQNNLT
UniProt Q9UBG3: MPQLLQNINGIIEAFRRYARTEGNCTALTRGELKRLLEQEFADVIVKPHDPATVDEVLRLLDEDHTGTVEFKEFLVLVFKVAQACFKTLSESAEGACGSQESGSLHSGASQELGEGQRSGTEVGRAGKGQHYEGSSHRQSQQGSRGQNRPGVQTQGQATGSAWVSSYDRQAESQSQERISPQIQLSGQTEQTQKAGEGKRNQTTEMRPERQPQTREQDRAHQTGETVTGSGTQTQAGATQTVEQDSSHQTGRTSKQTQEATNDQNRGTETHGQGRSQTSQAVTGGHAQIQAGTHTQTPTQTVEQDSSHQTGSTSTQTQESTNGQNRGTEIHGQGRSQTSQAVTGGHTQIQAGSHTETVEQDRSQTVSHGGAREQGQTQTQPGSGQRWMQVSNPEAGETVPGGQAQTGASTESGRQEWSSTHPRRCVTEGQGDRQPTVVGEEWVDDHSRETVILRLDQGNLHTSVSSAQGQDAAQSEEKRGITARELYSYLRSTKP
UniProt Q96RY5: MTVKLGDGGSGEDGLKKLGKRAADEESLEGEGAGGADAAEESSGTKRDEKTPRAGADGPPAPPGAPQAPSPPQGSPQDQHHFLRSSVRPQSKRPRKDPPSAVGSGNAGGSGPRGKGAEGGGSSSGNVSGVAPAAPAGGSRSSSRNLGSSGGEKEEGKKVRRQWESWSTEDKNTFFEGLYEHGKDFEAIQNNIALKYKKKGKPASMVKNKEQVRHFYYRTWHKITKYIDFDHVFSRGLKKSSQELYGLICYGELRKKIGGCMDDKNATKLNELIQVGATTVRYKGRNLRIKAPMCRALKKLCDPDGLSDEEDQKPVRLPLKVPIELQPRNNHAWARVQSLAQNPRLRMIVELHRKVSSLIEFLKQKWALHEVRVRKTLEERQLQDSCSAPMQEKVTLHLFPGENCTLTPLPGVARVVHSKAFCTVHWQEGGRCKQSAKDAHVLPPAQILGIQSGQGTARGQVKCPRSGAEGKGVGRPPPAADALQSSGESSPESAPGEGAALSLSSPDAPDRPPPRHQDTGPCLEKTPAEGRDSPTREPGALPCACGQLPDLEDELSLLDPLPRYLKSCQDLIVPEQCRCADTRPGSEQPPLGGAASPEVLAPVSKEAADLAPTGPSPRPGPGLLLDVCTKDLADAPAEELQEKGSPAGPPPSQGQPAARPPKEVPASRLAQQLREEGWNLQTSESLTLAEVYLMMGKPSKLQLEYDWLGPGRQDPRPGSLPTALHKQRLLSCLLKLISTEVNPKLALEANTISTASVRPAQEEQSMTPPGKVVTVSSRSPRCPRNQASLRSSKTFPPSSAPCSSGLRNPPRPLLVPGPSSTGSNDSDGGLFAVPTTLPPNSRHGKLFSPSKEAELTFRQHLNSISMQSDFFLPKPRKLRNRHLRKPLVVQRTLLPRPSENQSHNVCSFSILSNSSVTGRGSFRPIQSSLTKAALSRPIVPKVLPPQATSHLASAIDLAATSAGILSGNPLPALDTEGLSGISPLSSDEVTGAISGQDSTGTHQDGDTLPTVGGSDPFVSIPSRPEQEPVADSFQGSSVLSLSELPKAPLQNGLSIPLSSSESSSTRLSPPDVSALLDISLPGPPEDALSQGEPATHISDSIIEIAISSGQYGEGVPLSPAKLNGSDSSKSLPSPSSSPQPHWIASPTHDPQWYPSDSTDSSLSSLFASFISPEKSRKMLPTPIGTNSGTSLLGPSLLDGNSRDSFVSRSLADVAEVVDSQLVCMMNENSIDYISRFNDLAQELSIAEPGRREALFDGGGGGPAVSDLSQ
UniProt Q8NI51: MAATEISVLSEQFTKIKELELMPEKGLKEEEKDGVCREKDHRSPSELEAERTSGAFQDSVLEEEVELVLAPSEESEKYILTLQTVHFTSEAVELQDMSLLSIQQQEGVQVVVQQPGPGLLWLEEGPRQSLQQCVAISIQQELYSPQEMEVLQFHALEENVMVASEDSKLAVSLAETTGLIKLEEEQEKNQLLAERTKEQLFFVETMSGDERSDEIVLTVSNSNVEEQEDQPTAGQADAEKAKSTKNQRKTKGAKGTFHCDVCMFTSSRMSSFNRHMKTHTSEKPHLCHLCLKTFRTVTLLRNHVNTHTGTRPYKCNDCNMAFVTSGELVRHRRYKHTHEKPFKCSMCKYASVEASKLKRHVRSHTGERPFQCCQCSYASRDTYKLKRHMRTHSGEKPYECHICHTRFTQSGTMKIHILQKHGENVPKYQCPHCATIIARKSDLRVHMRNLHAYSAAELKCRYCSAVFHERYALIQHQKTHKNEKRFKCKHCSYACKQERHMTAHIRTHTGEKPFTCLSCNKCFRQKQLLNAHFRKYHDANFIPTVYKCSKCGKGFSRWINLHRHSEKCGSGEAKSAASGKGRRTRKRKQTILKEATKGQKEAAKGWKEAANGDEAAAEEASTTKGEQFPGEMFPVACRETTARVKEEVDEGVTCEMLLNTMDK
UniProt P0C2W7: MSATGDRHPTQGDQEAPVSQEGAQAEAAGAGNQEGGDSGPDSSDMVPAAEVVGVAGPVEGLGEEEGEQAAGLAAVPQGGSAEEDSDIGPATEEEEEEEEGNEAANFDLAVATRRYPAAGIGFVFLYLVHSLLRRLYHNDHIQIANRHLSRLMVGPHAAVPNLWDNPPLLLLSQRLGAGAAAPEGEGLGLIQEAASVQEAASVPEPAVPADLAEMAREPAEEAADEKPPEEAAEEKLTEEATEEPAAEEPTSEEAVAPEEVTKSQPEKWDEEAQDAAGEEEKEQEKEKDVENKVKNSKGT

[2] = compound: CN1CCc2c(c3ccccc3n2Cc2ccc(C(=O)NO)cc2)C1 [Tubastatin A]
How it was run: as §1

[3] = compound: CNC(=O)C1=CC=CC=C1NC2=NC(=NC=C2Cl)NC3=C(C=C(C=C3)N4CCOCC4)OC
How it was run: as §1

[4] = compound: CNc1nc(-c2ccc3c(N)n[nH]c3c2)cc(N2C[C@@H](C(=O)NC3CCCCC3)CC[C@H]2C)n1
How it was run: as §1

[5] = compound: COc1cc(Nc2ncc3c(n2)-c2ccc(Cl)cc2C(c2c(F)cccc2OC)=NC3)ccc1C(=O)O [alisertib]
How it was run: as §1

[6] = compound: COc1cc2ncnc(Nc3ccc(F)c(Cl)c3)c2cc1OCCCN1CCOCC1 [gefitinib]
How it was run: as §1

[7] = compound: COc1cc2nc(-c3cc(F)ccc3O)nc(N[C@@H]3CNC[C@H]3C(C)(C)O)c2cc1OC
How it was run: as §1

[8] = compound: CNC(=O)c1ccc(Nc2ncc(C(F)(F)F)c(NCc3nccnc3N(C)S(C)(=O)=O)n2)cc1 [defactinib]
How it was run: as §1

[9] = compound: COC(=O)N[C@@H](C)CNc1nccc(-c2cn(C(C)C)nc2-c2cc(Cl)cc(NS(C)(=O)=O)c2F)n1 [encorafenib]
How it was run: as §1

[10] = compound: COC(=O)[C@H](CCSC)NC(=O)C1=C(C=C(C=C1)NC[C@H](CS)N)C2=CC=CC=C2
How it was run: as §1

Measured: log2 fold change

CTSG (UniProt P08311)
inactive: [1] -0.249 | [2] 0.068 | [3] -0.121 | [4] 0.258 | [5] 0.108 | [6] -0.081

CRIP2 isoform 2 (UniProt P52943)
inactive: [1] 0.161 | [2] -0.035 | [3] 0 | [4] -0.116 | [5] 0.143 | [7] 0.04 | [6] -0.132

CYHR1 (UniProt E9PJD7)
inactive: [1] 0.005 | [2] 0.011 | [3] 0.055 | [8] 0.025 | [4] 0.021 | [9] 0.024 | [10] -0.183 | [5] -0.018 | [7] 0.015 | [6] -0.003

CRNKL1 (UniProt Q9BZJ0)
inactive: [1] -0.024 | [2] 0.135 | [3] -0.009 | [8] 0.038 | [4] -0.026 | [9] 0.132 | [10] 0.061 | [5] -0.018 | [7] 0.063 | [6] 0.019

CTSH (UniProt P09668)
inactive: [1] 0 | [2] 0.069 | [3] 0.013 | [8] 0.042 | [4] 0.025 | [9] -0.003 | [10] -0.021 | [5] -0.029 | [7] -0.004 | [6] 0.005

CSDE1 isoform 3 (UniProt O75534)
inactive: [1] 0.029 | [2] -0.014 | [5] -0.011 | [7] 0.28 | [6] -0.09

CXorf40B (UniProt Q96DE9)
inactive: [1] 0.011 | [2] 0.234 | [8] 0.102 | [4] 0.048 | [5] 0.008 | [7] -0.053 | [6] 0.096

CRYM-AS1 (UniProt A6NIL9)
inactive: [1] -0.187 | [2] 0.099 | [3] -0.075 | [8] -0.224 | [9] -0.12 | [10] 0.014 | [5] 0.021 | [7] 0.063 | [6] 0.164

CYBRD1 (UniProt Q53TN4)
inactive: [1] -0.007 | [3] 0.025 | [8] -0.13 | [4] 0.146 | [7] 0.08

CSRP2 (UniProt Q16527)
inactive: [1] -0.028 | [9] -0.046 | [10] -0.056

CSNK2A1, A0A2R8Y4D6
inactive: [7] 0.06

CROCCP2 (UniProt Q86T23)
inactive: [3] 0.025 | [9] 0.137 | [10] -0.015 | [5] -0.082 | [7] -0.084 | [6] 0.204

CXXC5 (UniProt Q7LFL8)
inactive: [4] 0.212

CSRNP2 (UniProt Q9H175)
inactive: [2] -0.024 | [3] 0.008 | [4] 0.196

CXCL14 (UniProt O95715)
inactive: [8] -0.235 | [9] -0.034 | [10] 0.066

CSAD isoform 3 (UniProt Q9Y600)
inactive: [2] 0.082 | [3] -0.044

CSNK1G1 (UniProt Q9HCP0)
inactive: [3] -0.058 | [4] -0.018 | [9] -0.335 | [10] -0.239 | [7] 0.291

CRY2 (UniProt Q49AN0)
inactive: [1] -0.106 | [8] -0.145 | [5] -0.024 | [6] 0.047

CRTC3 (UniProt Q6UUV7)
inactive: [2] 0.044 | [3] -0.044 | [8] 0.044 | [4] 0.091 | [9] 0.089 | [10] -0.066

CS (UniProt F8VU34)
inactive: [2] 0.376 | [3] -0.13 | [4] 0.113 | [7] -0.345

Copied from above (12 entries):
CRYM-AS1 (UniProt A6NIL9)
inactive: [1] -0.187 | [2] 0.099 | [3] -0.075 | [8] -0.224 | [9] -0.12 | [10] 0.014 | [5] 0.021 | [7] 0.063 | [6] 0.164

CYBRD1 (UniProt Q53TN4)
inactive: [1] -0.007 | [3] 0.025 | [8] -0.13 | [4] 0.146 | [7] 0.08

CSRP2 (UniProt Q16527)
inactive: [1] -0.028 | [9] -0.046 | [10] -0.056

CSNK2A1, A0A2R8Y4D6
inactive: [7] 0.06

CROCCP2 (UniProt Q86T23)
inactive: [3] 0.025 | [9] 0.137 | [10] -0.015 | [5] -0.082 | [7] -0.084 | [6] 0.204

CXXC5 (UniProt Q7LFL8)
inactive: [4] 0.212

CSRNP2 (UniProt Q9H175)
inactive: [2] -0.024 | [3] 0.008 | [4] 0.196

CXCL14 (UniProt O95715)
inactive: [8] -0.235 | [9] -0.034 | [10] 0.066

CSAD isoform 3 (UniProt Q9Y600)
inactive: [2] 0.082 | [3] -0.044

CSNK1G1 (UniProt Q9HCP0)
inactive: [3] -0.058 | [4] -0.018 | [9] -0.335 | [10] -0.239 | [7] 0.291

CRY2 (UniProt Q49AN0)
inactive: [1] -0.106 | [8] -0.145 | [5] -0.024 | [6] 0.047

CRTC3 (UniProt Q6UUV7)
inactive: [2] 0.044 | [3] -0.044 | [8] 0.044 | [4] 0.091 | [9] 0.089 | [10] -0.066

Going on with the list:

CTDNEP1 (UniProt O95476)
inactive: [4] 0.009

CRAT (UniProt P43155)
inactive: [2] -0.002 | [3] 0.044 | [8] 0.022 | [4] 0.193 | [7] 0.058

CSPG5 isoform 2 (UniProt O95196)
inactive: [2] -0.172 | [3] -0.218 | [8] 0.062 | [5] 0.087 | [6] 0.118

CTIF (UniProt O43310)
inactive: [8] -0.131

CRY1 (UniProt Q16526)
inactive: [1] -0.132 | [5] -0.055 | [6] -0.198

CYLD (UniProt Q9NQC7)
inactive: [3] -0.045

CSNK1G3 isoform 4 (UniProt Q9Y6M4)
inactive: [7] 0.53

CROCC2 (UniProt H7BZ55)
inactive: [3] 0.025 | [4] 0.11 | [9] 0.131 | [10] 0.184 | [7] 0.028

CRNN (UniProt Q9UBG3)
inactive: [8] 1.03 | [5] -0.392 | [6] 0.289

CRAMP1 (UniProt Q96RY5)
inactive: [8] 0.02 | [4] -0.027 | [9] 0.098 | [10] 0.106

CST4 (UniProt P01036)
inactive: [2] 0.536 | [3] -0.054 | [4] -0.369 | [9] -0.177 | [10] -0.081 | [7] 0.115

CTCFL isoform 7 (UniProt Q8NI51)
inactive: [9] 0.056 | [10] 0.114 | [5] -0.038 | [6] 0.046

CWC25 (UniProt Q9NXE8)
inactive: [1] -0.042 | [8] -0.148 | [9] 0.012 | [10] -0.341 | [5] -0.022 | [7] 0.061 | [6] -0.077

CRYL1 (UniProt Q9Y2S2)
inactive: [3] 0.223 | [8] -0.383 | [4] 0.096 | [7] -0.038

CRTC2 (UniProt H0YDQ8)
inactive: [2] -0.018 | [8] 0.125

CTRB2 (UniProt Q6GPI1)
inactive: [1] -0.109 | [8] -0.093 | [9] 0.062 | [10] -0.008 | [5] 0.043 | [7] 0.065 | [6] 0.087

CTNNBIP1 (UniProt Q9NSA3)
inactive: [3] 0.126 | [4] 0.465

CTBP1 (UniProt E7ESU7)
inactive: [5] 0.272 | [6] -0.073

CSNK1A1 isoform 3 (UniProt P48729)
inactive: [2] -0.138 | [4] 0.068

CSGALNACT2 (UniProt Q8N6G5)
inactive: [3] 0.113 | [4] 0.135 | [7] -0.081

CT47B1 (UniProt P0C2W7)
inactive: [2] 0.076 | [3] -0.05 | [8] 0.346 | [4] 0.026 | [9] -0.034 | [10] -0.057 | [5] -0.028 | [7] 0.045 | [6] 0.122

CYFIP1, A0A0G2JRV9
inactive: [5] -0.321 | [7] 0.074 | [6] -0.246

Reference: the supplement of paper PMC10849652
